US6303366A, “Biodegradation of the gasoline oxygenates” (Envirogen, Inc., priority 1999, dated 2001)

System: ENV421
Experiment: Degradation of TAME by propane-oxidizing bacteria
Type: cell-based
Settings: 7.8 mg/L TAME, room temperature

**Q.** Which results are given for `CCC(C)(C)OC` [TAME, tert-amyl methyl ether]?
**A.** TAME Remaining after 24 hr incubation, Average (grown on 1-Propanol): 0 ppm; TAME Remaining after 24 hr incubation, Sample 1 (grown on 1-Propanol): 0 ppm; TAME Remaining after 24 hr incubation, Sample 2 (grown on 1-Propanol): 0 ppm; TAME Remaining after 24 hr incubation, Sample 3 (grown on 1-Propanol): 0 ppm; TAME Remaining after 24 hr incubation, Average (grown on Ethanol): 4.1 ppm; TAME Remaining after 24 hr incubation, Sample 1 (grown on Ethanol): 4.3 ppm; TAME Remaining after 24 hr incubation, Sample 2 (grown on Ethanol): 4.0 ppm; TAME Remaining after 24 hr incubation, Sample 3 (grown on Ethanol): 3.9 ppm; TAME Remaining after 24 hr incubation, Average (grown on Propane): 0 ppm; TAME Remaining after 24 hr incubation, Sample 1 (grown on Propane): 0 ppm; TAME Remaining after 24 hr incubation, Sample 2 (grown on Propane): 0 ppm; TAME Remaining after 24 hr incubation, Sample 3 (grown on Propane): 0 ppm
